Data from patent publication US10563263B2, “Genetic polymorphisms associated with statin response and cardiovascular diseases, methods of detection and uses thereof” (CELERA CORPORATION, priority 2010, dated 2020).
Further values from the same series stand in other lists.

Tested on: revascularization, unstable angina requiring hospitalization, MI, all causes of death, or stroke
Experiment: PROVE IT-TIMI 22: SNP by treatment interaction (high-dose atorvastatin vs standard-dose pravastatin), logistic regression (synergy index), primary composite endpoint
Type: in vivo, human

CC(C)c1c(C(=O)Nc2ccccc2)c(-c2ccccc2)c(-c2ccc(F)cc2)n1CC[C@@H](O)C[C@@H](O)CC(=O)O [Atorvastatin, atorvastatin]
OR (rs1424648 allele T, DOM, Imputed, atorvastatin vs pravastatin): 1.609
OR (rs1429321 allele A, DOM, Imputed, atorvastatin vs pravastatin): 1.519
OR (rs1429326 allele T, ADD, Imputed, atorvastatin vs pravastatin): 1.404
OR (rs1429326 allele T, DOM, Imputed, atorvastatin vs pravastatin): 1.574
OR (rs1434507 allele A ADD Imputed): 1.053
OR (rs1434508 allele T ADD Imputed): 1.053
OR (rs1435205 allele A ADD Imputed): 1.021
OR (rs1443928 allele C REC Imputed): 0.9918
OR (rs1444741 allele A, DOM, Imputed, atorvastatin vs pravastatin): 0.9777
OR (rs1449916 allele C, DOM, Imputed, atorvastatin vs pravastatin): 0.7246
OR (rs1459523 allele A, ADD, Imputed, atorvastatin vs pravastatin): 1.051
OR (rs1463768 allele G REC Genotyped): 1.844
OR (rs1463769 allele G REC Imputed): 1.844
OR (rs1472435 allele A ADD Imputed): 0.5361
OR (rs1472435 allele A DOM Imputed): 0.5361
OR (rs1476714 allele A DOM Imputed): 0.5924
OR (rs1476714 allele A, DOM, Imputed, atorvastatin vs pravastatin): 0.5924
OR (rs1486723 allele C, REC, Imputed, atorvastatin vs pravastatin): 0.5711
OR (rs1495159 allele G ADD Imputed): 1.318
OR (rs1495375 allele A DOM Imputed): 0.7102
OR (rs1495375 allele A, ADD, Imputed, atorvastatin vs pravastatin): 0.7715
OR (rs1495375 allele A, DOM, Imputed, atorvastatin vs pravastatin): 0.7102
OR (rs1495376 allele T DOM Imputed): 0.774
OR (rs1495377 allele G DOM Imputed): 0.7814
OR (rs1495381 allele T REC Imputed): 2.08
OR (rs1495381 allele T, REC, Imputed, atorvastatin vs pravastatin): 2.08
OR (rs1498061 allele C, ADD, Imputed, atorvastatin vs pravastatin): 0.6227
OR (rs1498992 allele G DOM Imputed): 0.7274
OR (rs1498992 allele G, DOM, Imputed, atorvastatin vs pravastatin): 0.7274
OR (rs1499001 allele T DOM Imputed): 0.7573
OR (rs1499001 allele T, DOM, Imputed, atorvastatin vs pravastatin): 0.7573
OR (rs1512988 allele A DOM Imputed): 0.7185
OR (rs1512988 allele A, ADD, Imputed, atorvastatin vs pravastatin): 0.7806
OR (rs1512988 allele A, DOM, Imputed, atorvastatin vs pravastatin): 0.7185
OR (rs1512989 allele T DOM Imputed): 0.7185
OR (rs1512989 allele T, ADD, Imputed, atorvastatin vs pravastatin): 0.7806
OR (rs1512989 allele T, DOM, Imputed, atorvastatin vs pravastatin): 0.7185
OR (rs1512991 allele T ADD Imputed): 0.7106
OR (rs1512991 allele T DOM Imputed): 0.6965
OR (rs1512991 allele T, ADD, Imputed, atorvastatin vs pravastatin): 0.7106
OR (rs1512991 allele T, DOM, Imputed, atorvastatin vs pravastatin): 0.6965
OR (rs1524310, allele G, ADD, Imputed, PROVE-IT, vs pravastatin): 1.063
OR (rs1527059, allele A, DOM, Imputed, PROVE-IT, vs pravastatin): 0.4524
OR (rs1527450 allele T ADD Imputed): 1.146
OR (rs1535866, allele G, DOM, Imputed, PROVE-IT, vs pravastatin): 1.405
OR (rs1567740, allele T, ADD, Imputed, PROVE-IT, vs pravastatin): 0.7805
OR (rs1567740, allele T, DOM, Imputed, PROVE-IT, vs pravastatin): 0.7204
OR (rs1567740 allele T DOM Imputed): 0.7204
OR (rs1572573, allele A, DOM, Imputed, PROVE-IT, vs pravastatin): 1.019
OR (rs1572573 allele A ADD Imputed): 1.012
OR (rs1572573 allele A DOM Imputed): 1.019
OR (rs1577497, allele C, REC, Imputed, PROVE-IT, vs pravastatin): 0.899
OR (rs1581514, allele T, ADD, Imputed, PROVE-IT, vs pravastatin): 1.06
OR (rs1582321, allele T, DOM, Imputed, PROVE-IT, vs pravastatin): 0.9009
OR (rs1582322, allele A, DOM, Imputed, PROVE-IT, vs pravastatin): 0.8697
OR (rs1582323, allele A, DOM, Imputed, PROVE-IT, vs pravastatin): 0.8751
OR (rs1584003 allele C DOM Imputed): 0.6043
OR (rs1584005 allele C DOM Imputed): 0.6032
OR (rs1585771 allele G ADD Imputed): 0.9914
OR (rs1592015 allele G DOM Imputed): 1.138
OR (rs1592485, allele C, DOM, Imputed, PROVE-IT, vs pravastatin): 0.8723
OR (rs1594885 allele A ADD Imputed): 1.083
OR (rs1600954, allele T, ADD, Imputed, PROVE-IT, vs pravastatin): 1.193
OR (rs1603232 allele A DOM Imputed): 0.7502
OR (rs1614565 allele C DOM Imputed): 0.7578
OR (rs1648200 allele G ADD Imputed): 1.299
OR (rs1700400 allele T ADD Imputed): 0.9427
OR (rs1705237 allele A DOM Imputed): 0.7578
OR (rs1705261, allele A, REC, Imputed, PROVE-IT, vs pravastatin): 2.005
OR (rs1705261 allele A REC Imputed): 2.005
OR (rs1782328 allele A (A1), ADD, Imputed, atorvastatin vs pravastatin): 0.96
OR (rs1796337 allele T (A1), DOM, Imputed, atorvastatin vs pravastatin): 0.6991
OR (rs1798083 allele C (A1), DOM, Imputed, atorvastatin vs pravastatin): 0.7428
OR (rs1798085 allele T (A1), DOM, Imputed, atorvastatin vs pravastatin): 0.7578
OR (rs1798086 allele T (A1), DOM, Imputed, atorvastatin vs pravastatin): 0.7565
OR (rs1798089 allele C (A1), REC, Imputed, atorvastatin vs pravastatin): 2.307
OR (rs1798090 allele C (A1), REC, Imputed, atorvastatin vs pravastatin): 2.295
OR (rs1832222, allele G, DOM, Imputed, PROVE-IT, vs pravastatin): 1.344
OR (rs1832222 allele G (A1), DOM, Imputed, atorvastatin vs pravastatin): 1.344
OR (rs1838104 allele A (A1), ADD, Imputed, atorvastatin vs pravastatin): 0.9138
OR (rs1861327, allele G, DOM, Imputed, PROVE-IT, vs pravastatin): 0.8914
OR (rs1868581, allele G, ADD, Imputed, PROVE-IT, vs pravastatin): 1.033
OR (rs1868616 allele G (A1), ADD, Imputed, atorvastatin vs pravastatin): 0.8179
OR (rs1874313, allele A, ADD, Imputed, PROVE-IT, vs pravastatin): 0.7883
OR (rs1874313, allele A, DOM, Imputed, PROVE-IT, vs pravastatin): 0.7338
OR (rs1874313 allele A (A1), DOM, Imputed, atorvastatin vs pravastatin): 0.7338
OR (rs1876409, allele C, DOM, Imputed, PROVE-IT, vs pravastatin): 1.204
OR (rs1884902 allele C (A1), REC, Imputed, atorvastatin vs pravastatin): 0.9755
OR (rs1913201, allele G, ADD, Imputed, PROVE-IT, vs pravastatin): 0.7137
OR (rs1913201, allele G, DOM, Imputed, PROVE-IT, vs pravastatin): 0.7026
OR (rs1913201 allele G (A1), ADD, Imputed, atorvastatin vs pravastatin): 0.7137
OR (rs1913201 allele G (A1), DOM, Imputed, atorvastatin vs pravastatin): 0.7026
OR (rs1936871, allele G, DOM, Genotyped, PROVE-IT, vs pravastatin): 0.7975
OR (rs1944279 allele A (A1), ADD, Imputed, atorvastatin vs pravastatin): 1.083
OR (rs1961157, allele T, REC, Imputed, PROVE-IT, vs pravastatin): 1.145
OR (rs1987179, allele T, ADD, Imputed, PROVE-IT, vs pravastatin): 0.617
OR (rs1987179, allele T, DOM, Imputed, PROVE-IT, vs pravastatin): 0.5176
OR (rs1987179 allele T (A1), DOM, Imputed, atorvastatin vs pravastatin): 0.5176
OR (rs1990023, allele T, DOM, Imputed, PROVE-IT, vs pravastatin): 0.593
OR (rs1990023 allele T (A1), DOM, Imputed, atorvastatin vs pravastatin): 0.593
OR (rs1995025, allele C, DOM, Imputed, PROVE-IT, vs pravastatin): 1.717
OR (rs2016194, allele G, DOM, Imputed, PROVE-IT, vs pravastatin): 0.5934
OR (rs2016194 allele G (A1), DOM, Imputed, atorvastatin vs pravastatin): 0.5934
OR (rs2024789 allele C (A1), ADD, Imputed, atorvastatin vs pravastatin): 0.9942
OR (rs2024902, allele A, ADD, Imputed, PROVE-IT, vs pravastatin): 1.087
OR (rs2024902 allele A (A1), ADD, Imputed, atorvastatin vs pravastatin): 1.087
OR (rs2025107, allele A, DOM, Imputed, PROVE-IT, vs pravastatin): 0.982
OR (rs2025107 allele A (A1), ADD, Imputed, atorvastatin vs pravastatin): 0.9899
OR (rs2025107 allele A (A1), DOM, Imputed, atorvastatin vs pravastatin): 0.982
OR (rs2025108, allele T, DOM, Imputed, PROVE-IT, vs pravastatin): 0.982
OR (rs2025108 allele T (A1), ADD, Imputed, atorvastatin vs pravastatin): 0.9899
OR (rs2025108 allele T (A1), DOM, Imputed, atorvastatin vs pravastatin): 0.982
OR (rs2052428, allele C, DOM, Imputed, PROVE-IT, vs pravastatin): 0.7089
OR (rs2053230, allele C, ADD, Imputed, PROVE-IT, vs pravastatin): 0.8193
OR (rs2062448, allele T, DOM, Imputed, PROVE-IT, vs pravastatin): 0.913
OR (rs2062448 allele T (A1), ADD, Imputed, atorvastatin vs pravastatin): 0.913
OR (rs2062448 allele T (A1), DOM, Imputed, atorvastatin vs pravastatin): 0.913
OR (rs2063420, allele C, REC, Imputed, PROVE-IT, vs pravastatin): 0.8647
OR (rs2063591, allele C, ADD, Imputed, PROVE-IT, vs pravastatin): 0.7255
OR (rs2063591, allele C, DOM, Imputed, PROVE-IT, vs pravastatin): 0.6936
OR (rs2063591 allele C (A1), ADD, Imputed, atorvastatin vs pravastatin): 0.7255
OR (rs2063591 allele C (A1), DOM, Imputed, atorvastatin vs pravastatin): 0.6936
OR (rs2065604 allele C (A1), DOM, Imputed, atorvastatin vs pravastatin): 1.177
OR (rs2066238 allele T (A1), DOM, Imputed, atorvastatin vs pravastatin): 1.138
OR (rs2068051 allele G (A1), ADD, Imputed, atorvastatin vs pravastatin): 0.9214
OR (rs2095586, allele A, DOM, Imputed, PROVE-IT, vs pravastatin): 1.347
OR (rs2095586 allele A (A1), DOM, Imputed, atorvastatin vs pravastatin): 1.347
